# Test results reported in PubChem BioAssay AID652054 (National Center for Advancing Translational Sciences (NCATS), 2013).
# By UniProt entry, the sequences of proteins in these tests, tags left out.
# UniProt P35462, whole entry, looked up: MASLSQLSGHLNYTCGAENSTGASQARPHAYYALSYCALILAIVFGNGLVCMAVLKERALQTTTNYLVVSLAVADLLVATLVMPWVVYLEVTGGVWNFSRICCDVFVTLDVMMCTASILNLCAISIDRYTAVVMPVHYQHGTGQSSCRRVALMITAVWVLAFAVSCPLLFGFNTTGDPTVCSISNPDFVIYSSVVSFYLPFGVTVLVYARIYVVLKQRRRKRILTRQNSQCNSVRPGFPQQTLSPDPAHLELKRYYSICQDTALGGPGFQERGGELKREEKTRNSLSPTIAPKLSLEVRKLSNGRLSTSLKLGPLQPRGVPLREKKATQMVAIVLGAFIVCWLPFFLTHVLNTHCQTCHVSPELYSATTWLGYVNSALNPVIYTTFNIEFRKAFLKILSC
# The whole screen tested about 360,000 compounds, of which about 9,100 (2.5%) were called active. Inconclusive means that the source gave no clear call. Such entries were picked first, then a sample of the others. No stated cut-off is given here; in the data, active means max response below about -50%; inconclusive means no clear call, values can overlap the other calls; inactive means above that. Where a structure was tested more than once in an assay, its records may differ in their call.
# Target: D(3) dopamine receptor (Homo sapiens) (UniProt P35462)
# Test: qHTS of D3 Dopamine Receptor Antagonist: qHTS
# Details: D3R cells, DiscoveRx beta-arrestin luminescence, antagonist mode; hits give low values
# Summary of the method: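 Cells plated overnight at 1500 cells/well, then exposed to library compounds with dopamine controls for 90 minutes at 37 degrees C. DiscoveRx reagent added for 30–60 minutes at room temperature; luminescence read, quantitative HTS format.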
# On the % scale 0 is the no-effect control and ±100 the full control effect.
row,SMILES,"max response, negative = inhibition"
1,CC(C)c1ccc(/C=N/n2c(COc3ccccc3)n[nH]c2=S)cc1,inconclusive: -34%
2,CCOc1cccc2sc(N(CCCN(C)C)C(=O)c3ccc(S(=O)(=O)N(C)CC4CCCO4)cc3)nc12 (configuration not stated),inconclusive: -41.3%
3,O=C(Cc1cccs1)N1CCN=C1SCc1ccccc1Cl,inactive: 4.77%
4,O=C(NCc1ccccn1)C(=O)NCC1OCCCN1S(=O)(=O)c1cc(F)ccc1F (configuration not stated),inconclusive: -30.9%
5,CCC(C)NC(=O)C1c2ccccc2C(=O)N1Cc1ccc(OC)cc1OC (configuration not stated),inconclusive: -40.1%
6,N#Cc1c(-c2ccccc2)cc(-c2ccccc2)nc1SCc1nnc(-c2ccccc2)o1,inactive: 7.47%
7,CCCCCCCNC(=O)C1(CC2CC(c3cccc(Br)c3)=NO2)CCN(C(=O)OC(C)(C)C)CC1 (configuration not stated),inconclusive: -40.6%
8,O=C(CCCCn1c(=O)c2ccccc2n(Cc2ccccc2F)c1=O)NC1CCN(Cc2ccccc2)CC1,inconclusive: -31.6%
9,O=C(Nc1ccccc1C(=O)Nc1nnc(C(F)(F)F)s1)c1ccccc1,inactive: 1.98%
10,Cc1cc(C)cc(NC(=O)c2nnn(Cc3cc(C)ccc3C)c2N)c1,inconclusive: -35.5%
11,O=C(C[n+]1ccc2c(c1)nnn2-c1ccccc1)c1ccc(Cl)cc1,active: -54.4%
12,COC(=O)C(C)Sc1ncnc2c1nnn2-c1ccc(F)cc1 (configuration not stated),inconclusive: -36.3%
13,CN(C)S(=O)(=O)N(CC(=O)N1CCN(Cc2ccccc2)CC1)c1ccccc1,inactive: -11.7%
14,Cc1ccc(Cn2ccc(NC(=O)c3noc4c3CCCC4)n2)cc1,inactive: 6.05%
15,O=C(Nc1ccccc1N1CCCC1)C1CCCO1 (configuration not stated),inconclusive: -35.7%
16,COc1cccc(CNCCSc2nnnn2C)c1,inactive: -27.1%
17,Cc1cc(=O)n2[nH]c(N)c(N=Nc3ccccc3)c2n1,inconclusive: -48.9%
18,C/C(=N\Nc1nc(N2CCCCC2)nc(N2CCOCC2)n1)c1ccccc1O,inactive: 14.3%
19,Cc1ccc(NC(=O)Cn2c(=O)n(CCCC(=O)NCc3ccco3)c(=O)c3ccccc32)cc1,inconclusive: -47.1%
20,Cc1ccc(Cl)cc1N1CCN(C(=O)CSc2nnc3n2C(C)(C)Cc2ccccc2-3)CC1,inconclusive: -30.2%
21,CCOc1ccccc1/C=C/c1onc(C)c1S(=O)(=O)N1CCC(C(=O)NC(C)(C)C)CC1,inconclusive: -41.5%
22,COc1ccc2[nH]cc(C(O)CN3CCN(c4ccccc4F)CC3)c2c1 (configuration not stated),active: -63.4%

# A section from further up, as a working copy:
row,SMILES,"max response, negative = inhibition"
11,O=C(C[n+]1ccc2c(c1)nnn2-c1ccccc1)c1ccc(Cl)cc1,active: -54.4%
12,COC(=O)C(C)Sc1ncnc2c1nnn2-c1ccc(F)cc1 (configuration not stated),inconclusive: -36.3%
13,CN(C)S(=O)(=O)N(CC(=O)N1CCN(Cc2ccccc2)CC1)c1ccccc1,inactive: -11.7%

# (more compounds)

row,SMILES,"max response, negative = inhibition"
1,CCCc1nnc(N2C(=O)c3cccc4cccc(c34)C2=O)s1,inconclusive: -34.5%
2,CSc1ccccc1C(=O)C1CCCN(C(=O)c2cncs2)C1 (configuration not stated),inactive: -0.749%
3,CC(C)N1C/C(=C/c2ccsc2)C(=O)/C(=C/c2ccsc2)C1,inconclusive: -35%
4,Cc1nn(-c2nc3ccccc3n2Cc2ccccc2)c2c1C(=O)CC(C)(C)C2,inconclusive: -42.6%
5,O=C(c1ccc(Cl)c(S(=O)(=O)N2CCOCC2)c1)N(Cc1ccco1)Cc1cccs1,inactive: 0%
6,COc1ccc(-c2cc(-c3ccccc3)nc(SCC(=O)Nc3ncc(C)s3)c2C#N)cc1,active: -55.9%
7,CC(C)(C)NC[C@H](O)COc1nsnc1N1CCOCC1,active: -53.9%
8,NS(=O)(=O)c1ccc(S(=O)(=O)N2CCCC(c3ccccc3)C2)cc1 (configuration not stated),inconclusive: -30.5%
9,COc1ccc(C2c3c(oc4ccccc4c3=O)C(=O)N2CCCN2CCOCC2)cc1 (configuration not stated),inconclusive: -32.3%
10,Cc1ccc(CN2CCN(Cc3cccc(OCCO)c3)CC2CCO)o1 (configuration not stated),inconclusive: -33.3%
11,CN(C)Cc1cc(CN(C)C)c(O)c(CCc2ccccc2)n1,inconclusive: -32.2%
12,O=C(NCCc1cn2ccccc2n1)c1ccc(Br)o1,inconclusive: -33.9%
13,Cc1ccc2c(c1)N(S(=O)(=O)c1ccc(F)cc1)C(C(C)(C)C)CO2 (configuration not stated),inconclusive: -33.5%
14,COC(=O)C1=NN(C(=O)c2ccccc2)C(C)(O)C1 (configuration not stated),inactive: -15.8%
15,CCC(=O)N(Cc1ccco1)Cc1cc2cccc(C)c2n2nnnc12,inactive: 5.04%
16,CC1CC(C)(C)NC(=S)N1CCCC(=O)Nc1ccc(Cl)cc1 (configuration not stated),inactive: 2.09%
17,COc1ccccc1/C=C/C(=O)N1CCOCC1,inactive: -3.94%
18,COC(=O)c1ccc(-c2cc(C(=O)O)c3cc4c(cc3n2)OCCO4)cc1,inconclusive: -37.7%
19,COCCCNCC1C(Oc2ccc(Cl)cc2)C(=O)N1c1ccccc1C (configuration not stated),inconclusive: -37.3%
20,COC(=O)c1ccc(N2CCN(S(=O)(=O)c3ccccc3)CC2)c([N+](=O)[O-])c1,inconclusive: -39%
21,c1ccc(-c2nc(NCC3CCCO3)c3ccccc3n2)nc1 (configuration not stated),active: -52.8%
22,O=C(CCc1ccccc1)NC(NC(=S)Nc1ccc(Cl)cc1)C(Cl)(Cl)Cl (configuration not stated),inconclusive: -45.1%

row,SMILES,"max response, negative = inhibition"
1,Fc1ccccc1-c1nc(-c2ccc(Br)o2)no1,inactive: -6.82%
2,Cc1ccc(SCC(=O)NCCC2=CCCCC2)cc1,inconclusive: -42.4%
3,O=S(=O)(NCc1ccccn1)c1ccccn1,inactive: -25.2%
4,O=C(c1csc2c1CCCC2)N1CCN(c2ccc(F)cc2)CC1,inactive: 14.4%
5,CN(C(=O)COC(=O)c1ccccc1Nc1ccccc1)C1CCS(=O)(=O)C1 (configuration not stated),inconclusive: -37.3%
6,CCOc1ccc(CN2CCN(Cc3[nH]c4ccccc4c3C)CC2CCO)cc1 (configuration not stated),inactive: -17%
7,COc1ccc2c(c1)-c1nc(NC(=O)c3ccco3)sc1CC2,inactive: 34.5%
8,CC(=O)c1cc(C#N)c(SCC(=O)OC(C)(C)C)nc1C,inconclusive: -32.3%
9,O=C(NCc1cccs1)C1CCC(CNS(=O)(=O)c2cccc3nsnc23)CC1 (configuration not stated),inconclusive: -35.3%
10,Cc1ccc2c(c1)C1CN(C)CCC1N2C(=O)c1cccc(S(=O)(=O)N2CC(C)CC(C)C2)c1 (configuration not stated),inactive: -25.5%
11,Cc1ccc2c(c1)sc1nc(=O)n(-c3ccc(Cl)cc3)c(=O)n12,inconclusive: -36.4%
12,CCOC(=O)c1c(N2C(=O)CC(Sc3ccccc3C(=O)O)C2=O)sc(C)c1C (configuration not stated),inconclusive: -32.7%
13,O=C(C[n+]1cc(-c2ccccc2)n2c1CCC2)Nc1nc(-c2ccc(F)cc2)cs1,inactive: -14.3%
14,Cc1cc(C)nc(SCC(=O)N(C)CC(=O)Nc2c(Cl)cccc2Cl)n1,inactive: 4.05%
15,COc1ccc(-c2cc(C)no2)cc1S(=O)(=O)NCc1ccc(OC(C)C)cc1,inactive: 5.9%
16,CC(CN1CCN(CC(C)C(=O)c2ccccc2)CC1)C(=O)c1ccccc1 (configuration not stated),active: -59.5%
17,CC(Cc1cccs1)NC(=O)Nc1ccc(Cl)c(Cl)c1 (configuration not stated),inconclusive: -30.6%
18,O=C(CCN1C(=O)c2ccccc2C1=O)NC1=NCCS1,inconclusive: -31.6%
19,O=C(CC[C@H]1O[C@@H](n2ccc(=O)[nH]c2=O)[C@H](O)[C@@H]1O)NCc1ccccc1,inconclusive: -30.5%
20,Cc1nn(-c2ccccc2)cc1C(c1c(N)[nH]c(=S)[nH]c1=O)c1c(N)[nH]c(=S)[nH]c1=O,inconclusive: -38.5%
21,C=CCn1c(COc2ccccc2)nnc1SCC(=O)Nc1ccc(S(N)(=O)=O)cc1,inconclusive: -40.4%
22,COc1cc2cc(C(=O)N3CCOCC3)cc(-c3ccc(C)cc3)c2cc1OC,inactive: 8.78%

# Retrieved by structure from above (2):
row,SMILES,"max response, negative = inhibition"
6,CCOc1ccc(CN2CCN(Cc3[nH]c4ccccc4c3C)CC2CCO)cc1 (configuration not stated),inactive: -17%
18,O=C(CCN1C(=O)c2ccccc2C1=O)NC1=NCCS1,inconclusive: -31.6%

# Next compounds:

row,SMILES,"max response, negative = inhibition"
1,CCNC(=O)/C(C#N)=C/c1c(N2CCN(c3ccccc3)CC2)nc2c(C)cccn2c1=O,active: -68.5%
2,Oc1c(Br)cc(/C=N/NC(=S)NCc2ccco2)cc1Br,inactive: -9.08%
3,COC(=O)C1=CN(c2ccc3c(c2)OCO3)C(N)=C(C#N)C1c1ccc(-c2ccccc2)cc1 (configuration not stated),inconclusive: -32.7%
4,COc1ccc(OC)c(N=Cc2c(O)[nH]c3ccccc23)c1,inconclusive: -48.2%
5,COc1cccc2c1OCC(CN1CCN(CCC(C)C)C(CCO)C1)=C2 (configuration not stated),inactive: -3.74%
6,CCc1cccc(NC(=O)c2cc(S(=O)(=O)N3CCCCC3)ccc2N2CCOCC2)c1,inconclusive: -32.6%
7,COc1ccccc1C(=O)Nc1ccc2c(c1)nc1n2CCN(Cc2ccccc2)C1,inconclusive: -41.2%
8,Cc1c(C(=S)Nc2ccccc2)cnn1-c1ccccc1,inconclusive: -41.8%
9,CCCCNCc1nc2ccccc2c(=O)[nH]1,inconclusive: -43.3%
10,CCC(=O)Nc1ccc2c(c1)nc(CCN1CCC(C)CC1)n2C,inactive: -20.4%
11,COc1cc2c(cc1Cl)/C(=C\CCN(C)C)c1ccccc1S2,active: -92.4%
12,Cc1ccc(OCc2nc3ccccc3n2C(C(=O)Nc2c(C)cccc2C)C2CC2)cc1 (configuration not stated),inconclusive: -46.8%
13,CCN1CCN(Cc2c(O)ccc3c2O/C(=C\C=C\c2ccccc2)C3=O)CC1,inconclusive: -48.3%
14,CN1CCN(C2CC(=O)N(c3ccc4c(c3)OCCO4)C2=O)CC1 (configuration not stated),inconclusive: -38.4%
15,CC1=Nc2ccccc2N=C(NC(=O)CSc2nnnn2-c2ccccc2)C1c1ccccc1 (configuration not stated),inconclusive: -38.4%
16,COc1cc(C(F)(F)F)c(C(=O)N(C)Cc2cc(Cl)cc(Cl)c2)cn1,inactive: 7.21%
17,C=CCn1c(C)cc(C2=NNC(=NCc3ccccc3)SC2)c1C,inconclusive: -37.3%
18,O=C(CSc1nc2ncccc2[nH]1)Nc1c(F)cc(F)cc1Br,active: -57.8%
19,CC(CCc1ccccc1)NC(=O)CN1CCc2ccccc2C1 (configuration not stated),inconclusive: -49.9%
20,O=C(NCCCN1CCOCC1)c1onc(CSc2ccc(F)c(F)c2)c1C(=O)NCCCN1CCOCC1,inconclusive: -42.7%
21,CN1CCc2c(c3ccccc3n2C)C1,active: -72.9%
